The target of this data set is Dnmt3a-CD P187R P773R (Mus musculus) (UniProt O88508). As to the kind of experiment: fluorescence polarization. The conditions noted are these: 100 uM AdoHcy, Kd not determined, weak binding retained, Buffer A: 20 mM HEPES pH 7.5, 100 mM KCl, 1 mM EDTA, 1 mM DTT, 25 C, DNA 100 nM (Methods) or 10 nM (Figure 6 legend), Hill fit, recombinant protein, protein details: C-terminal His6, label: 5'-FAM on strand 1 via aminohexyl linker. Background: Fluorescence polarisation rises when a labelled molecule tumbles more slowly, as on binding a larger partner.

Data on 1 sequence can be found in article PMC7022712.

For at least one entry, the source does not settle the construct or the ends of the probe. Weaker means in comparison with the reference protein, sequence or condition of that experiment.

On to “CTGAATACTACTTGCGCTCTCTAACCTGAT (double strand) [fCG/CG]”, for which the binding result is “binds more weakly”.
